Experimental data: US6569834B1, “Elucidation and synthesis of antineoplastic tetrapeptide w-aminoalkyl-amides” (priority 1992, dated 2003)
For at least one compound, name, drawing or mass did not settle the structure.

Legend:
Type in all cases: cell-based
[1] = system: NCI-460; test: Human cancer cell growth inhibition, Lung-NSC NCI-460
Description: (§1) Only two hundred years ago, many diseases ravaged humankind. Many of these diseases have been controlled or eradicated. In the development of the means to treat or control these diseases, work with the appropriate common experimental animals was of critical importance. With the various types of cancers, and with the HIV virus, such work is presently ongoing. The research for the treatment of various types of cancer is coordinated by the National Cancer Institute (NCI). NCI, as a government entity, has been charged with assisting anti-cancer research. To establish whether a substance has anti cancer activity, NCI has established a protocol. This protocol, which involves testing a substance against a cell line panel containing 60 human tumor cell lines, has been verified, and is accepted in scientific circles. This protocol, and the established statistical means of evaluating the results obtained therefrom have been amply described in the literature. See e.g. Principles & Practice of Oncology PPO Updates, Volume 3, Number 10, October 1989, by Michael R. Boyd, M. D., Ph.D., for a description of the protocol. The statistical analysis is explained in “Display and Analysis of Patterns of Differential Activity of Drugs Against Human Tumor Cell Lines: Development of Mean Graph and COMPARE Algorithm” Journal of the National Cancer Institute Reports Vol. 81, No. 14, Pg. 1088, July 14, 1989, by K. D. Paull et al. Both articles are incorporated herein by this reference as if fully set forth.
(§2) The extraordinary inhibition of cell growth shown by the tetrapeptide w-aminoalkylamides 6a-d against six major types of human cancer and against the murine P388 lymphocytic leukemia cell line has been presented in Table I.

[2] = system: SK-MEL-3; test: Human cancer cell growth inhibition, melanoma SK-MEL-3
Description: as §1, §2

[3] = system: KM20L2; test: Human cancer cell growth inhibition, colon KM20L2
Description: as §1, §2

[4] = system: A498; test: Human cancer cell growth inhibition, renal A498
Description: as §1, §2

[5] = system: SF-295; test: Human cancer cell growth inhibition, CNS SF-295
Description: as §1, §2

[6] = system: OVCAR-3; test: Human cancer cell growth inhibition, ovarian OVCAR-3
Description: as §1, §2

SMILES | LC-50 [1] [µg/mL] | LC-50 [2] [µg/mL] | LC-50 [3] [µg/mL] | LC-50 [4] [µg/mL] | LC-50 [5] [µg/mL] | LC-50 [6] [µg/mL]
CC[C@H](C)[C@@H]([C@@H](CC(=O)N1CCC[C@H]1[C@H](OC)[C@@H](C)C(=O)NCCc1ccccn1)OC)N(C)C(=O)[C@@H](NC(=O)[C@H](C(C)C)N(C)C)C(C)C [Peptide 6a, [2S-[1[1R*(R*),2S*],2R*[1S*,2S*]]]-N,N-dimethyl-L-valyl-N-[2-methoxy-4-[2-[1-methoxy-2-methyl-3-oxo-3-[[2-(2-pyridyl)ethyl]amino]propyl]-1-pyrrolidinyl-1-(methylpropyl)-4-oxobutyl]-N-methyl-L-valineamide] | <0.01 | <0.01 | <0.01 | <0.01 | <0.01 | <0.01
CC[C@H](C)[C@@H]([C@@H](CC(=O)N1CCC[C@H]1[C@H](OC)[C@@H](C)C(=O)NCCN1CCOCC1)OC)N(C)C(=O)[C@@H](NC(=O)[C@H](C(C)C)N(C)C)C(C)C [Peptide 6b, [2S-[1[1R*(R*),2S*],2R*[1S*,2S*]]]-N,N-dimethyl-L-valyl-N-[2-methoxy-4-[2-[1-methoxy-2-methyl-3-oxo-3-[[2-(4-morpholino)ethyl]amino]propyl]-1-pyrrolidinyl-1-(methylpropyl)-4-oxobutyl]-N-methyl-L-valineamide] | <0.0001 | <0.0001 | <0.0001 | <0.0001 | <0.0001 | <0.0001
CC[C@H](C)[C@@H]([C@@H](CC(=O)N1CCC[C@H]1[C@H](OC)[C@@H](C)C(=O)NCCN(C)C)OC)N(C)C(=O)[C@@H](NC(=O)[C@H](C(C)C)N(C)C)C(C)C [Peptide 6c, [2S-[1[1R*(R*),2S*],2R*[1S*,2S*]]]-N,N-dimethyl-L-valyl-N-[2-methoxy-4-[2-[1-methoxy-2-methyl-3-oxo-3-[[2-dimethylamino-ethyl]amino]propyl]-1-pyrrolidinyl-1-(methylpropyl)-4-oxobutyl]-N-methyl-L-valineamide] | <0.01 | <0.01 | <0.01 | <0.01 | <0.01 | <0.01
CC[C@H](C)[C@@H]([C@@H](CC(=O)N1CCC[C@H]1[C@H](OC)[C@@H](C)C(=O)NCCCN(C)C)OC)N(C)C(=O)[C@@H](NC(=O)[C@H](C(C)C)N(C)C)C(C)C [Peptide 6d, [2S-[1[1R*(R*),2S*],2R*[1S*,2S*]]]-N,N-dimethyl-L-valyl-N-[2-methoxy-4-[2-[1-methoxy-2-methyl-3-oxo-3-[[3-dimethylamino-propyl]amino]propyl]-1-pyrrolidinyl-1-(methylpropyl)-4-oxobutyl]-N-methyl-L-valineamide] | <0.01 | <0.01 | <0.01 | <0.01 | <0.01 | <0.01
